These are yes or no findings as the source states them, for the method shown. Some entries that bind do so weakly or less than the wild type.
Key:
[1] = biological target: recombinant hCD8αβ protein (R&D systems) (human) (UniProt P01732); experiment: equilibrium binding ELISA
[2] = biological target: recombinant hCD8αβ protein (R&D systems) (human) (UniProt P01732); experiment: SPR

Protein sequences, listed by entry. Tags and fused reporters are not part of them. Lines headed by an entry give the natural chain unless they say otherwise; changes in a name come on top.
UniProt P01732: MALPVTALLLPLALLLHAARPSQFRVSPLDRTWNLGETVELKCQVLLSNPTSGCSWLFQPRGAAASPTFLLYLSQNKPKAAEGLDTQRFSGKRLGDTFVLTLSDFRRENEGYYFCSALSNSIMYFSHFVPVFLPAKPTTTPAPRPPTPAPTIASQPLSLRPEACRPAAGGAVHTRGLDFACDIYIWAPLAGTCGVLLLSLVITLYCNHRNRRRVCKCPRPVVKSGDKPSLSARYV

Row | Binder | binding [1] | binding [2]
1 | anti-human CD8β single domain antibody 22719 (VHH, not shown: small tags and cut ends) VHH: DVQLVESGGGLVQAGGSLRLSCRASGHTFSDTAVGWFRRVPGKEREFVATIAGSGSIRYSESVKGRFTISGDNAKNMVYLQMNRLKPEDTGVYYCAAAVGISYDYWGQGTQVTVSS | binds | binds
2 | anti-human CD8β single domain antibody 22728 (VHH, not shown: small tags and cut ends) VHH: DVQLVESGGGLVQAGDSLRLSCVASGRTVSGGVMGWFRQAPGKGREFVASIKWESGRTYYVDSLKDGFTISRDSPKNTVYLQMTNLKPEDTAVYYCAAGIRVWQLSTLESTYDDWGQGTQVTVSS | binds | binds
3 | anti-human CD8β single domain antibody 22772 (VHH, not shown: small tags and cut ends) VHH: DVQLVESGGGLVQPGGSLRLSCRASGHTFSDLSVGWFRRAPGKAREFVATTAWNGSIRYAESVKGRFTISRDNAANMMYLQMNSLKPEDTAIYYCAAAVGISYDYWGQGTQVTVSS | binds | binds

— patent US20260102527A1
